Results: the supplement of paper PMC12823440, “Inhibitors supercharge kinase turnover through native proteolytic circuits” (Nature, 2025)
Some of the results follow. The calls rarely recur for the same compound in another form.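 In K562 cells expressing nanoluciferase-fused kinases, luminescence was recorded at 4 h intervals between 2 and 18 h, normalized as percent of control with DMSO at 100% and a positive control at 0%. A significant (2 sigma) signal drop marks a time point as decreased. The authors' rule for a hit is not shown and takes in more than the number of time points.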

Protein sequences, listed by entry. Tags and fused reporters are not part of them. Lines headed by an entry give the natural chain unless they say otherwise; changes in a name come on top.
UniProt O15530: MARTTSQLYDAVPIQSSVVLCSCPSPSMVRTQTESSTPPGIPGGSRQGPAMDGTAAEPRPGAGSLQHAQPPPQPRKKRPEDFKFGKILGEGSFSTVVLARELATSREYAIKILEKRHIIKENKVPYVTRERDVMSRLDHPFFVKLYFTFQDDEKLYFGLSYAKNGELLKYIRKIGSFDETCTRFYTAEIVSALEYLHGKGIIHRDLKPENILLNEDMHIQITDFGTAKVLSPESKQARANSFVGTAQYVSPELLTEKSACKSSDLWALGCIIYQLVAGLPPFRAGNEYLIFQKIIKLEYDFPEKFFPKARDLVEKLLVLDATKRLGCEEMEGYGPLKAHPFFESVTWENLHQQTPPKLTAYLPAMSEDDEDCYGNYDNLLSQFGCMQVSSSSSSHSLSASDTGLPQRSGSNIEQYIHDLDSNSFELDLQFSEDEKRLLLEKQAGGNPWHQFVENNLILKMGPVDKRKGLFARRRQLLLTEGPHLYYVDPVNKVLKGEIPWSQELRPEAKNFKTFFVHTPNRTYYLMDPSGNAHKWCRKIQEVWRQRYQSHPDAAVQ
UniProt Q9UBF8: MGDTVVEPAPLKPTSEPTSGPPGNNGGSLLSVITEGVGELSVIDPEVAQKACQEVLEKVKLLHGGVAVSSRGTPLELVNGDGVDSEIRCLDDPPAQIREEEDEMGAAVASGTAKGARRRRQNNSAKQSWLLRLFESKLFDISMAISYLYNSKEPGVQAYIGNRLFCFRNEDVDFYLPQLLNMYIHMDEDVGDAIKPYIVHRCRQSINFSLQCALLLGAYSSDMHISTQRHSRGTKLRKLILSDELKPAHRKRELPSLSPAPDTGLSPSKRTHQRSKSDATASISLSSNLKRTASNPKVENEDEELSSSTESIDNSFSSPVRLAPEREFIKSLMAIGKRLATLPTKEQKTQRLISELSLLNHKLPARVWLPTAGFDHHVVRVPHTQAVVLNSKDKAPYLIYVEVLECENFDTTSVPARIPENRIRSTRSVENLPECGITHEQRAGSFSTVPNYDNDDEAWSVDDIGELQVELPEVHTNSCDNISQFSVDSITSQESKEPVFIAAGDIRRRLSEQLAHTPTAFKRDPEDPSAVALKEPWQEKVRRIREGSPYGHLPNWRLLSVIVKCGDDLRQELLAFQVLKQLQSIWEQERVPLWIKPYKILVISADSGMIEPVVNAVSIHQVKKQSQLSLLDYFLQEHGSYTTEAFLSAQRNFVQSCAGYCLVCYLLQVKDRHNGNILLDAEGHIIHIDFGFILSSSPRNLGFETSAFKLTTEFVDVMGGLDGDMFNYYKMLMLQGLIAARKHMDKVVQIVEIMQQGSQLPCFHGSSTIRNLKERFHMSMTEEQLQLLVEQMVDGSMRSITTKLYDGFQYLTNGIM
UniProt P53350, whole entry: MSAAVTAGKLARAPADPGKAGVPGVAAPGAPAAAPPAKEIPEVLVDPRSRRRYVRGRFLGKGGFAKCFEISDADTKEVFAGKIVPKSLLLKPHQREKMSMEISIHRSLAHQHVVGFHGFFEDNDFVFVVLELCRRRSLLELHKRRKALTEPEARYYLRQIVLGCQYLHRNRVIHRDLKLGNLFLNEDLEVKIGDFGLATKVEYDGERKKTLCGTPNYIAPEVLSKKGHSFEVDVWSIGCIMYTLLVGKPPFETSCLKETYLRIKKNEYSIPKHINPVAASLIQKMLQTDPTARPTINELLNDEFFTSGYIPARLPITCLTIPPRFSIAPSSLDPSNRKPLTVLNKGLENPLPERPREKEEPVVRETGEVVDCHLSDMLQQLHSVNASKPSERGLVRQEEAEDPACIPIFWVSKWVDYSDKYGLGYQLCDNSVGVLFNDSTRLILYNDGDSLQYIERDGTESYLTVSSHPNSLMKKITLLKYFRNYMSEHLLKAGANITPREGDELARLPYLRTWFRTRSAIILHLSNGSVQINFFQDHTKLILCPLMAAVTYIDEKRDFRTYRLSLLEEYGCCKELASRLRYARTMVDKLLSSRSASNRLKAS
UniProt Q13131: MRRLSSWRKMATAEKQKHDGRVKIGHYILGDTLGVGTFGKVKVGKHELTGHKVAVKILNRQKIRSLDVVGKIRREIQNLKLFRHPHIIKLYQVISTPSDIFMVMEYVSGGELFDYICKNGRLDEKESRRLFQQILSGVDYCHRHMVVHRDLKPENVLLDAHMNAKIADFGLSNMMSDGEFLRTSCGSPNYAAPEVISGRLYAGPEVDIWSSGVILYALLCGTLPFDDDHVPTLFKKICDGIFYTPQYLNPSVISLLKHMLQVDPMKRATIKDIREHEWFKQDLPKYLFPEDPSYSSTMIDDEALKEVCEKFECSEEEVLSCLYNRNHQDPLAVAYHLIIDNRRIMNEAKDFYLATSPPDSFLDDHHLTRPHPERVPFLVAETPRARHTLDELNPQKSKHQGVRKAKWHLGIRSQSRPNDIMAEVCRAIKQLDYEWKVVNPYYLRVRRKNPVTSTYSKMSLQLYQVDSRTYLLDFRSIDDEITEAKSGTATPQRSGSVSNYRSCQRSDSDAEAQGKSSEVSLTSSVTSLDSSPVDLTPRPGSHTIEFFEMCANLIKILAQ
UniProt Q05397, whole entry, looked up: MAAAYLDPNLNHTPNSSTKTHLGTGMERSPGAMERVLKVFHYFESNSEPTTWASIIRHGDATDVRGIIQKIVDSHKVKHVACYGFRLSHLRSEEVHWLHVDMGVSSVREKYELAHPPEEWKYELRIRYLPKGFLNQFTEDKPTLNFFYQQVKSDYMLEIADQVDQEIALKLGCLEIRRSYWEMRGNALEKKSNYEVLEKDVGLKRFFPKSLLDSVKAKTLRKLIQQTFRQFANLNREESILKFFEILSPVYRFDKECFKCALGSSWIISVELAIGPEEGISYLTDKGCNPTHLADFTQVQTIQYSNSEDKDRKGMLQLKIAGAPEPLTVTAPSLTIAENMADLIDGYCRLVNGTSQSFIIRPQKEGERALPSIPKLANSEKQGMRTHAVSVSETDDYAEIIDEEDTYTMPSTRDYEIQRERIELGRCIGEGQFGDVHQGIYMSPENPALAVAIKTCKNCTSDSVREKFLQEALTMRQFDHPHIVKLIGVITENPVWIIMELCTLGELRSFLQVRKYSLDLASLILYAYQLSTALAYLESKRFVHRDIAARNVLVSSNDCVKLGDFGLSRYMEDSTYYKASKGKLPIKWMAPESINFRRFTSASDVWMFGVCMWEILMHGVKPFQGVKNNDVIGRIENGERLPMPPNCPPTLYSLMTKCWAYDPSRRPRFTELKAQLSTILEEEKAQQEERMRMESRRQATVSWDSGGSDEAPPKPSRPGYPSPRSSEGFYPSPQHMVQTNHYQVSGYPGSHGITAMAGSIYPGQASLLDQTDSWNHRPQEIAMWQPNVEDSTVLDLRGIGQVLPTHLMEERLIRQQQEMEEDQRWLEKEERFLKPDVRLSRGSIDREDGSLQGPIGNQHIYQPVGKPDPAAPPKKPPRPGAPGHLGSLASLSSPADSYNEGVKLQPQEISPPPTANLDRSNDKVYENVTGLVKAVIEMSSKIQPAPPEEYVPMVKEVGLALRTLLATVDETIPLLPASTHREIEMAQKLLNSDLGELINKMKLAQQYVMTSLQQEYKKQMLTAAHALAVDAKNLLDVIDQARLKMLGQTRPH
UniProt Q14289, whole entry, looked up: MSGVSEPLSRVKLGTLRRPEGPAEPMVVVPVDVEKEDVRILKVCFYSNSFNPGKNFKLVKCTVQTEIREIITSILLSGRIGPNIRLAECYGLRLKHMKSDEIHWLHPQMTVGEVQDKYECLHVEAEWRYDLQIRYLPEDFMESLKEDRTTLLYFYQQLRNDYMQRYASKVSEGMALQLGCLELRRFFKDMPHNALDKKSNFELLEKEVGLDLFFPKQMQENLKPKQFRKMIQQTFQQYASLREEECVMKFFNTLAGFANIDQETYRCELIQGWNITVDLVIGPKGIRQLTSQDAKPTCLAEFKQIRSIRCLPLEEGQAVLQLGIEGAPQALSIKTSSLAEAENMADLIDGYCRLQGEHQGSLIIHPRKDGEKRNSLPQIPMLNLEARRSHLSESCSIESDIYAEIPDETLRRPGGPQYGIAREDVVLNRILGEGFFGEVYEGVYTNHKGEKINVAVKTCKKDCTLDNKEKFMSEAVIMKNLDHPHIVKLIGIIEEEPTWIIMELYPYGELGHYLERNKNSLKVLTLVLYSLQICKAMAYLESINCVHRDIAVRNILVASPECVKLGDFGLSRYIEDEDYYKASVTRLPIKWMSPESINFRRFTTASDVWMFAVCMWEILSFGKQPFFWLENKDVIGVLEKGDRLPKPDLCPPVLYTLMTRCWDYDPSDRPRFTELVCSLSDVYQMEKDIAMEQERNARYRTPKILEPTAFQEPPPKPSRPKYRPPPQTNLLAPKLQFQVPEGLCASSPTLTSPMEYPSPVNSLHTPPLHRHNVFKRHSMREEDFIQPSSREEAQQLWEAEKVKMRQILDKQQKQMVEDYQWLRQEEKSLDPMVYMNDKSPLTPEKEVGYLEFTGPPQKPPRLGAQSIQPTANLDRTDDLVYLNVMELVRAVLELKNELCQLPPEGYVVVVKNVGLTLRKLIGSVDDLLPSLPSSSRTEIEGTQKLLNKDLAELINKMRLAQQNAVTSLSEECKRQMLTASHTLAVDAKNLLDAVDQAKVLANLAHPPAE

Legend:
Test in all cases: kinase-Nluc reporter destabilization hit call (1 = scored as downregulated) (binary); higher = compound decreases kinase abundance
Details in all cases: K562; 2-18 h
[1] = biological target: PDPK1 (UniProt O15530)
[2] = biological target: PIK4CA (UniProt P42356)
[3] = biological target: PIK4CB (UniProt Q9UBF8)
[4] = biological target: PLK1 (UniProt P53350)
[5] = biological target: PRKAA1 (UniProt Q13131)
[6] = biological target: PRKCA (UniProt P17252)
[7] = biological target: PTK2 (UniProt Q05397)
[8] = biological target: PTK2B (UniProt Q14289)
[9] = biological target: RAF1 (UniProt P04049)
[10] = biological target: RAF1_S257L (clone: RAF1_mut) (UniProt P04049)

Measured: kinase-Nluc reporter destabilization hit call

Cc1cc(CSc2ccccc2C(=O)NCCNc2ccc(C(F)(F)F)cc2[N+](=O)[O-])on1 (10 µM)
inactive: [1] 0 | [2] 0 | [3] 0 | [4] 0 | [5] 0 | [6] 0 | [7] 0 | [8] 0 | [9] 0 | [10] 0

CC(C)n1ncnc1-c1cn2c(n1)-c1ccc(O[C@@H](C)C(N)=O)cc1OCC2 (10 µM)
inactive: [1] 0 | [2] 0 | [3] 0 | [4] 0 | [5] 0 | [6] 0 | [7] 0 | [8] 0 | [9] 0 | [10] 0

c1nc2c(NC3CCCCC3)nc(Nc3ccc(N4CCOCC4)cc3)nc2[nH]1 [Reversine] (10 µM)
inactive: [1] 0 | [2] 0 | [3] 0 | [4] 0 | [5] 0 | [6] 0 | [7] 0 | [8] 0 | [9] 0 | [10] 0

CC(C)Oc1ccc(F)c(-c2cnc(N)c(C(=O)Nc3cnccc3N3CCC[C@@H](C(=O)O)C3)n2)c1 (2 µM)
inactive: [1] 0 | [2] 0 | [3] 0 | [4] 0 | [5] 0 | [6] 0 | [7] 0 | [8] 0 | [9] 0 | [10] 0

CC1CN(CC2CCN(Cc3ccccc3)CC2)C(=O)N(c2cccc(C(=N)N)c2)C1 (stereo not given) (10 µM)
inactive: [1] 0 | [2] 0 | [3] 0 | [4] 0 | [5] 0 | [6] 0 | [7] 0 | [8] 0 | [9] 0 | [10] 0

Cc1cnc(NC(=O)c2cc(Oc3cnc(C(=O)N(C)C)nc3)c3cc(C)oc3c2)cn1 (10 µM)
inactive: [1] 0 | [2] 0 | [3] 0 | [4] 0 | [5] 0 | [6] 0 | [7] 0 | [8] 0 | [9] 0 | [10] 0

COc1cc2ncnc(Oc3ccc(CC(=O)Nc4cnn(C(C)C)c4)cc3)c2cc1OC (10 µM)
inactive: [1] 0 | [2] 0 | [3] 0 | [4] 0 | [5] 0 | [6] 0 | [7] 0 | [8] 0 | [9] 0 | [10] 0

c1nn(C2CCOCC2)cc1Nc1ncc2nnn(-c3ccc4cn[nH]c4c3)c2n1 (10 µM)
inactive: [1] 0 | [2] 0 | [3] 0 | [4] 0 | [5] 0 | [6] 0 | [7] 0 | [8] 0 | [9] 0 | [10] 0

COc1cc2nccc(Oc3ccc(NC(=O)c4cn(C(C)C)c(=O)n(-c5ccc(F)cc5)c4=O)cc3F)c2cc1OC (0.5 µM)
inactive: [1] 0 | [2] 0 | [3] 0 | [4] 0 | [5] 0 | [6] 0 | [7] 0 | [8] 0 | [9] 0 | [10] 0

COC(=O)Nc1ccc(-c2nc(N3CCOCC3)c3cnn(C4CCN(C(=O)OC)CC4)c3n2)cc1 (10 µM)
inactive: [1] 0 | [2] 0 | [3] 0 | [4] 0 | [5] 0 | [6] 0 | [7] 0 | [8] 0 | [9] 0 | [10] 0

2 successive entries from above:
Cc1cnc(NC(=O)c2cc(Oc3cnc(C(=O)N(C)C)nc3)c3cc(C)oc3c2)cn1 (10 µM)
inactive: [1] 0 | [2] 0 | [3] 0 | [4] 0 | [5] 0 | [6] 0 | [7] 0 | [8] 0 | [9] 0 | [10] 0

COc1cc2ncnc(Oc3ccc(CC(=O)Nc4cnn(C(C)C)c4)cc3)c2cc1OC (10 µM)
inactive: [1] 0 | [2] 0 | [3] 0 | [4] 0 | [5] 0 | [6] 0 | [7] 0 | [8] 0 | [9] 0 | [10] 0

(continued)

COc1cc2ncnc(Nc3ccc(O)c(Br)c3)c2cc1OC (10 µM)
inactive: [1] 0 | [2] 0 | [3] 0 | [4] 0 | [5] 0 | [6] 0 | [7] 0 | [8] 0 | [9] 0 | [10] 0

COc1ccc(Br)cc1NC(=O)Nc1cccc2c1ccn2Cc1ccnc(N)c1 (2.5 µM)
inactive: [1] 0 | [2] 0 | [3] 0 | [4] 0 | [5] 0 | [6] 0 | [7] 0 | [8] 0 | [9] 0 | [10] 0

CC(C)(C)Cc1[nH]nc2c1[C@@](C)(c1ccccc1)C1=C(CC(C)(C)CC1=O)N2 (10 µM)
inactive: [1] 0 | [2] 0 | [3] 0 | [4] 0 | [5] 0 | [6] 0 | [7] 0 | [8] 0 | [9] 0 | [10] 0

NC1(C(=O)NCCCn2cc(-c3ccc(OC(F)(F)F)cc3)c3cc(CN4CCN(Cc5c(Cl)cccc5Cl)CC4)ccc32)CCNCC1 (2.5 µM)
inactive: [1] 0 | [2] 0 | [3] 0 | [4] 0 | [5] 0 | [6] 0 | [7] 0 | [8] 0 | [9] 0 | [10] 0

N#Cc1cnc2c(Cl)cc(NCc3cn(CCN4CCCCCC4)nn3)cc2c1Nc1ccc(F)c(Cl)c1 [Cot inhibitor-1] (10 µM)
inactive: [1] 0 | [2] 0 | [3] 0 | [4] 0 | [5] 0 | [6] 0 | [7] 0 | [8] 0 | [9] 0 | [10] 0

Cc1cc(C)cc(NC(N)=Nc2ccccc2C(F)(F)F)c1 (10 µM)
inactive: [1] 0 | [2] 0 | [3] 0 | [4] 0 | [5] 0 | [6] 0 | [7] 0 | [8] 0 | [9] 0 | [10] 0

CNC(=O)c1ccc2c(C(=Nc3cccc(CN(C)C)c3)c3ccccc3)c(O)[nH]c2c1 [MEK inhibitor] (10 µM)
inactive: [1] 0 | [2] 0 | [3] 0 | [4] 0 | [5] 0 | [6] 0 | [7] 0 | [8] 0 | [9] 0 | [10] 0

COc1cc(N2CCOCC2)ccc1Nc1ncc(F)c(Nc2ccccc2NS(C)(=O)=O)n1 (10 µM)
inactive: [1] 0 | [2] 0 | [3] 0 | [4] 0 | [5] 0 | [6] 0 | [7] 0 | [8] 0 | [9] 0 | [10] 0

Cc1c(C)c(NCC(=O)N(C)C2CCN(Cc3ccc(C(N)=O)cc3)CC2)c(C)c(C)c1N (10 µM)
inactive: [1] 0 | [2] 0 | [3] 0 | [4] 0 | [5] 0 | [6] 0 | [7] 0 | [8] 0 | [9] 0 | [10] 0

O=c1c2c([nH]n1-c1nc3ccccc3s1)CCCC2 (10 µM)
inactive: [1] 0 | [2] 0 | [3] 0 | [4] 0 | [5] 0 | [6] 0 | [7] 0 | [8] 0 | [9] 0 | [10] 0

COc1cc(F)ccc1-c1ncnc(Nc2cccc(C[S@](C)(=N)=O)c2)n1 [Atuveciclib] (2.5 µM)
inactive: [1] 0 | [2] 0 | [3] 0 | [4] 0 | [5] 0 | [6] 0 | [7] 0 | [8] 0 | [9] 0 | [10] 0

CCn1c(-c2nonc2N)nc2c(C#CC(C)(C)O)ncc(OC[C@H]3CCCNC3)c21 (10 µM)
inactive: [1] 0 | [2] 0 | [3] 0 | [4] 0 | [5] 0 | [6] 0 | [7] 0 | [8] 0 | [9] 0 | [10] 0

O=C(O)c1ccc(/C=C/S(=O)(=O)Cc2ccc(Cl)cc2)cc1 [Recilisib] (10 µM)
inactive: [1] 0 | [2] 0 | [3] 0 | [4] 0 | [5] 0 | [6] 0 | [7] 0 | [8] 0 | [9] 0 | [10] 0

COC(=O)Nc1ccc(-c2nc(N3CCOCC3)c3cnn(C4CCN(Cc5cccnc5)CC4)c3n2)cc1 (10 µM)
inactive: [1] 0 | [2] 0 | [3] 0 | [4] 0 | [5] 0 | [6] 0 | [7] 0 | [8] 0 | [9] 0 | [10] 0

CCN(CC)CCCC(C)Nc1nc(C)cc(Nc2ccc3nc(C)cc(N)c3c2)n1 (stereo not given) (10 µM)
inactive: [1] 0 | [2] 0 | [3] 0 | [4] 0 | [5] 0 | [6] 0 | [7] 0 | [8] 0 | [9] 0 | [10] 0

C=CC(=O)Nc1ccc(C(=O)Nc2[nH]nc3c2CN(C(=O)N[C@H](CN(C)C)c2ccccc2)C3(C)C)cc1 (10 µM)
inactive: [1] 0 | [2] 0 | [3] 0 | [4] 0 | [5] 0 | [6] 0 | [7] 0 | [8] 0 | [9] 0 | [10] 0

COc1ccc2c(Oc3ccc4c(C(=O)Nc5ccccc5N)cccc4c3)ccnc2c1 [Chiauranib] (10 µM)
inactive: [1] 0 | [2] 0 | [3] 0 | [4] 0 | [5] 0 | [6] 0 | [7] 0 | [8] 0 | [9] 0 | [10] 0

CC(C)n1c(=O)n(C)c2cnc3cc(F)c(-c4ccc(OCCCN5CCCCC5)nc4)cc3c21 (10 µM)
inactive: [1] 0 | [2] 0 | [3] 0 | [4] 0 | [5] 0 | [6] 0 | [7] 0 | [8] 0 | [9] 0 | [10] 0
